This is one part of the list. These are further read-outs of the screen, such as a control signal, another cell line or another target. No call is given for them. Most of these compounds were active or inconclusive in the main read-out, so they are no random draw. Words in brackets tell the shape of the fitted curve; partial curves, single points and poor fits give uncertain potencies. Where a SMILES comes first, the peptide text is derived from it. [ ]: non-standard residue; d: D form. The star is where a group is joined. PhAc = O=C(Cc1ccccc1)*
Experiment: qHTS Assay for Lipid Storage Modulators in Drosophila S3 Cells;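 on cell number change: cells counted by Cell Tracker Red CMTPX staining in the red channel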
Conditions: BODIPY lipid droplet fluorescence, 18-24 h; for cell number change: measured here: cell count max response, cells fed with added oleic acid
In short: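 Laser-scanning cytometry quantifies lipid droplet accumulation (500–530 nm total intensity; droplet/cell object ratio) in oleic acid-fed (400 uM added) Drosophila S3 cells treated with a concentration series. 20 uM Triacsin C defined 100% inhibition.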

[1] = measured here: cell number channel AC50, cells fed with added oleic acid
[2] = measured here: lipid fluorescence (Fed channel) AC50, cells fed with added oleic acid

NS(=O)(=O)c1cccc(NC(=O)C2CC(=O)N(Cc3ccco3)C2)c1 (configuration not stated)
cell number change: -35.7%
AC50 [1]: 3.66 µM [falling, full curve]
AC50 [2]: 29.1 µM [falling, single point]

COc1ccc(O)c(C(=O)c2cnn(S(=O)(=O)c3ccc(C)cc3)c2)c1
cell number change: -0.138%
AC50 [2]: 11.6 µM [falling, partial curve]

CC(C)(C)c1cc(NS(=O)(=O)c2cccs2)no1
cell number change: -6.08%

CCOC(=O)C1CCN(C(=O)CCc2nnc3ccc(N4CCN(C)CC4)nn23)CC1
cell number change: 9.55%
AC50 [2]: 0.116 µM [rising, partial curve, poor fit]

Cc1cnc(C(=O)OCC(=O)c2c(N)n(CC(C)C)c(=O)n(C)c2=O)cn1
cell number change: 14.1%

O=C(O)CCCC(=O)Nc1ccccc1C(=O)N1CCCC1
AC50 [2]: 5.8 µM [falling, single point]

NS(=O)(=O)c1ccc(N/N=C/c2ccccc2C(=O)O)c([N+](=O)[O-])c1
cell number change: 33.5%
AC50 [2]: 0.231 µM [falling, full curve, poor fit]

CN(Cc1ccc(F)cc1)C(=O)CNC(=O)c1cccs1
cell number change: 1.17%
AC50 [2]: 0.082 µM [falling, full curve, poor fit]

COc1ccc(C)cc1NC(=O)CCS(=O)(=O)c1ccc2c(c1)oc(=O)n2C
cell number change: -8.26%
AC50 [2]: 0.731 µM [falling, single point]

COC(=O)c1ccc(CNC(=O)c2c3c(nc4ccccc24)CCN(Cc2ccccc2)C3)cc1
cell number change: 9.03%
AC50 [2]: 0.82 µM [falling, full curve, poor fit]

Cc1cc(Cl)ccc1NC(=O)c1ccc2c(c1)CCN2S(C)(=O)=O
cell number change: 13.4%
AC50 [1]: 3.26 µM [rising, single point]

COC(=O)C(NS(=O)(=O)c1ccccc1Cl)c1ccccc1 (configuration not stated)
cell number change: -7.01%
AC50 [2]: 6.51 µM [falling, single point]

Cc1ccc(S(=O)(=O)NCc2ccccc2)cc1C(=O)N1CCN(S(=O)(=O)c2ccccc2)CC1
cell number change: -1.01%
AC50 [1]: 3.26 µM [rising, single point]

CCN(CCO)Cc1csc2cc(C)ccc12
cell number change: -3.45%
AC50 [2]: 16.4 µM [rising, single point]

O=C(COc1ccccc1)N1CCCCCCC1
cell number change: 19%
AC50 [2]: 29.1 µM [rising, single point]

COc1ccc(C)cc1COC(=O)c1[nH]c(C)c(C(C)=O)c1C
cell number change: 14.3%
AC50 [2]: 29.1 µM [falling, single point]

CCCCn1c(N)c(N(CCC(C)C)C(=O)c2cc(Cl)nc3ccccc23)c(=O)[nH]c1=O
cell number change: 29.2%
AC50 [1]: 4.11 µM [rising, full curve, poor fit]
AC50 [2]: 4.61 µM [rising, full curve]

CN(C)C(=O)c1snnc1-c1ccccc1
cell number change: 10.8%
AC50 [2]: 29.1 µM [rising, single point]

COc1ccc(C(C)=O)cc1CC(=O)Nc1cccc(S(=O)(=O)N2CCOCC2)c1
cell number change: -5.83%

COc1ccc(CC(=O)Nc2cccc(C(=O)Nc3ccccc3C(=O)O)c2)cc1OC
cell number change: 32.2%
AC50 [1]: 18.4 µM [rising, single point]

CC(C)C[C@@H](NC(=O)[C@H]1CCCN1C(=O)Cc1ccccc1)C(N)=O (PhAc-[dP]-[dL]-NH2)
cell number change: -23%
AC50 [2]: 29.1 µM [falling, single point]

CCN1C(=O)[C@@H]2[C@@H](c3ccc(-c4cccc(Cl)c4)c(OC)c3)N3CCCC[C@@]3(C(=O)OC)[C@@H]2C1=O
cell number change: -47.8%
AC50 [1]: 13 µM [falling, partial curve, poor fit]
AC50 [2]: 18.4 µM [falling, partial curve, poor fit]

CC(=O)c1cccc(S(=O)(=O)N2CCC(C(=O)O)(c3ccccc3)CC2)c1
cell number change: 32.1%
AC50 [1]: 32.6 µM [rising, single point]
AC50 [2]: 0.13 µM [rising, full curve]

Cc1c(NC(=O)c2cn3ccccc3n2)cccc1-n1cnnn1
cell number change: -47%
AC50 [1]: 29.1 µM [falling, single point]
AC50 [2]: 16.4 µM [falling, single point]

Cc1ccc(C(=O)CCC(=O)NCc2ccccc2)cc1
cell number change: 12.5%

CCC(C)N(C(=O)COc1ccccc1C#N)C1CCS(=O)(=O)C1 (configuration not stated)
AC50 [2]: 23.1 µM [falling, single point]

O=C(CSc1nnc(CNC(=O)c2cccs2)o1)Nc1cccc(Cl)c1
cell number change: 2.14%
AC50 [2]: 6.51 µM [rising, single point]

COc1ccc2cc(-c3cc(C(=O)O)c4ccccc4n3)ccc2c1
cell number change: 32.5%
AC50 [1]: 29.1 µM [rising, single point]

Cc1ccccc1SCC(=O)NC1CCOC1=O (configuration not stated)
cell number change: -13.2%
AC50 [1]: 0.058 µM [falling, full curve, poor fit]
AC50 [2]: 0.0731 µM [falling, full curve, poor fit]

CCOC(=O)CSc1nc2nc(C)cc(C)n2n1
cell number change: -27.6%
AC50 [2]: 20.6 µM [falling, partial curve, poor fit]

N/C(=N\OS(=O)(=O)c1ccccc1)c1ccccn1
cell number change: -32.4%
AC50 [1]: 29.1 µM [falling, single point]
AC50 [2]: 6.51 µM [rising, single point]

C/C(=N\NC1=NCCN1)c1ccccc1
cell number change: 28.4%

CN(C)/C=N/c1ncc(C(=O)c2ccc(Cl)cc2)s1
AC50 [1]: 6.51 µM [rising, single point]
AC50 [2]: 6.51 µM [rising, single point]

Cn1c(N)c(N2CCN(c3ccccc3)CC2)c(=O)[nH]c1=O
cell number change: -92.2%

COc1cccc(NS(=O)(=O)c2cc(C)ccc2OC)c1
cell number change: 0.27%
AC50 [2]: 0.0517 µM [rising, full curve, poor fit]

COc1cc(/C=C2/SC(=S)NC2=O)ccc1OS(=O)(=O)c1ccc(C)cc1
cell number change: -2.26%
AC50 [2]: 29.1 µM [falling, single point]

COCCn1c(SCC(=O)NC(=O)NC2CCCC2)nc2ccccc2c1=O
cell number change: 29.4%
AC50 [2]: 16.4 µM [falling, partial curve]

COc1ccc(Cl)cc1N(C(=O)c1ccco1)C(C(=O)NC1CCCC1)c1ccco1 (configuration not stated)
cell number change: 22.2%
AC50 [2]: 6.51 µM [rising, single point]

O=C(Cc1ccccc1)NNC(=O)C1CCN(c2ncccn2)CC1
AC50 [1]: 0.103 µM [falling, full curve, poor fit]

CC1(c2ccc(OC(F)F)cc2)NC(=O)N(CC(=O)Nc2cccc(F)c2)C1=O (configuration not stated)
cell number change: 22.5%
AC50 [1]: 3.66 µM [rising, full curve, poor fit]

CCOc1ccc(C(=O)NC(=S)Nc2ccccc2N2CCOCC2)cc1Br
cell number change: -20.9%
AC50 [1]: 0.092 µM [rising, full curve, poor fit]
AC50 [2]: 6.51 µM [rising, partial curve, poor fit]

COc1ccc(C(=O)N[C@H](C(=O)NCc2ccco2)C(C)C)cc1
cell number change: -5.22%
AC50 [2]: 0.00461 µM [rising, full curve, poor fit]

Cc1nc(OCc2c(C)noc2C)c2ccccc2n1
cell number change: 22.1%
AC50 [1]: 0.82 µM [rising, single point]
AC50 [2]: 0.731 µM [rising, full curve]

CCCCCCCCOC(=O)CCc1c(C)[nH]c(=S)[nH]c1=O
cell number change: -22%
AC50 [2]: 13 µM [falling, single point]

O=C(COC(=O)c1cccc(S(=O)(=O)N2CCCC2)c1)Nc1ccccc1Cl
cell number change: -91.5%

COC(=O)c1c(C(=O)OC)c(C)n(Cc2ccco2)c1C
cell number change: 21.6%
AC50 [2]: 18.4 µM [rising, single point]

CSCCC(NC(=O)COc1ccccc1)C(=O)N(C)CC(=O)Nc1ccc(Cl)cc1 (configuration not stated)
cell number change: -13.3%

CCc1cc(-c2n[nH]c(C)c2Oc2ccc(C(C)C)cc2)c(O)cc1O
cell number change: -92.4%
AC50 [2]: 29.1 µM [falling, partial curve]

Cc1ccc(C)c(N2CCN(C(=O)CCC(=O)N3CCOc4ccc(Cl)cc43)CC2)c1
cell number change: 59.7%
AC50 [1]: 14.6 µM [rising, partial curve]
AC50 [2]: 20.6 µM [rising, single point]

Cc1cc(C)c(C#N)c(SCc2[nH]nc3c2C(c2ccccc2)C(C#N)=C(N)O3)n1 (configuration not stated)
cell number change: 78.5%
AC50 [1]: 1.16 µM [rising, full curve]
AC50 [2]: 8.2 µM [rising, partial curve]

Cc1ccc(OCC(=O)NC2CCCC2)c(C)c1
cell number change: 20.1%
AC50 [2]: 6.51 µM [rising, partial curve]

CC(C)/C=N/Nc1nc(-c2ccc(Br)cc2)cs1
cell number change: 13.1%
AC50 [2]: 3.26 µM [rising, partial curve, poor fit]

CC(=O)c1ccc(NC(=S)N2CCN(c3cccc(Cl)c3)CC2)cc1
cell number change: -0.865%

CC(=O)/C(=N/Nc1ccc(C)cc1)Sc1nnc(CCc2ccccc2)n1-c1ccccc1
cell number change: -4.29%
AC50 [2]: 0.651 µM [falling, partial curve]

CCOC(=O)N1CCC(NC(=O)CNS(=O)(=O)c2ccc(Br)s2)CC1
cell number change: 16.4%
AC50 [2]: 29.1 µM [rising, single point]

COc1cccc(C(CC(=O)NCC2CCCO2)NS(=O)(=O)c2ccc(C)cc2)c1OC (configuration not stated)
cell number change: -37.1%
AC50 [1]: 29.1 µM [falling, single point]

Cc1nnc(SCC(=O)N2CC(=O)Nc3ccccc32)n1Cc1ccccc1
cell number change: 4.6%
AC50 [2]: 0.146 µM [falling, full curve, poor fit]

O=C(COc1ccccc1Br)NCCC1=CCCCC1
cell number change: -32.4%
AC50 [1]: 20.6 µM [falling, single point]

CCN(CC)S(=O)(=O)c1cccc(NC(=O)c2ccc(-n3nc(C)cc3C)cc2)c1
cell number change: 2.63%
AC50 [2]: 18.4 µM [falling, single point]
